# These are yes or no findings as the source states them, for the method shown. In cells and extracts the contact can be indirect. These calls come from enrichment with a bait or labelling near it, and not all partners need be listed.
# Biological target: ATP1A3 (Na+/K+-ATPase alpha 3 subunit) (human (endogenous in U87)) (UniProt P13637)
# Assay: affinity purification with mass spectrometry; immunoprecipitation-mass spectrometry (IP-MS) of ATP1A3 complexes from whole-cell lysates of U87 cells
substance,measurement,value
aquaporin-4 (AQP4) (from UniProt P55087 1-323),binding,binds
